No constants are given. Whether binding was seen depends on the method and setting. Some results given as binding are weak or reduced against the parent protein; the word gives no strength.
Assays:
人PD1蛋白 (human) [1] = biological target: 人PD1蛋白 (human) (UniProt Q15116); assay: phage ELISA; VHH displayed on T7 phage, PD1 extracellular domain coated, compared with wild-type T7 phage
人PD1蛋白 (human) [2] = biological target: 人PD1蛋白 (human) (UniProt Q15116); assay: ELISA; antigen coated, purified nanobody detected with anti-HA antibody

Sequences of proteins named here, by UniProt entry; tags and fusion partners are left off. Residues count along the entry.
UniProt Q15116, residues 25-170: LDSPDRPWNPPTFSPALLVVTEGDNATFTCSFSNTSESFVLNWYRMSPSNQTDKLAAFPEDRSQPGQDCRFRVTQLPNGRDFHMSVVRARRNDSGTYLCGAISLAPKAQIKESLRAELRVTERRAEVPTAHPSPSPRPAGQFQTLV

binding (人PD1蛋白 (human) [1]): binds
binding (人PD1蛋白 (human) [2]): binds
B1: 抗PD1-VHH1 (VHH)
VHH: QVQLVESGGGSVQAGGSLRLSCAASGYASSSYSMGWFRQAPGKEREAVAGVNRDGSTRYADSVKGRFTISKDNAKNTLYLQMNSLKPEDTAMYYCAADRGWLPRRPDYWGQGTQVTVSS

Source: patent CN114349861A
